# Results are given in words; binding and its absence hold for the method and conditions named. Some results given as binding are weak or reduced against the parent protein; the word gives no strength.
# T1: L of … (…)
# T1 sequence (peptide): LIFAKAYPDDD
# T2: L of RLIFAK{acetyl}AYPDDD (LIFAK{acetyl}AYPDDD)
# T2 sequence (peptide, K5 acetylated): LIFAKAYPDDD
# T3: …{LYS(FITC)}
# T3 sequence (peptide, FITC on the C-terminal Lys): AAKLDEESILKQK
# How the values were obtained:
# [1] = target: T1, L of … (…); test: on-chip dynamic sequencing with PS691, PS610, PS961, PS1165; two example traces
# [2] = target: T2, L of RLIFAK{acetyl}AYPDDD (LIFAK{acetyl}AYPDDD); test: as above
# [3] = substrate: T4, I of RLIFAK{acetyl}AYPDDD (IFAK{acetyl}AYPDDD); test: as above
# T4 sequence (peptide, K4 acetylated): IFAKAYPDDD
# [4] = target: T3, …{LYS(FITC)}; test: high-throughput Octet assay, peptide on the sensor
binding [1],binding [2],binding [3],binding [4],Binder
binds,binds,binds,,PS961 (designed binder) MPTAASATESAIEDTPAPARPEVDGRTKPKRQPRYHVVLWDDDDHTYQYVVVMLRSLFGHPPSRGYRMAKEMDTQGRVIVLTTTREHAELKRDQIHAFGRDRLLARSKGSMKASIEAEE
,,,binds,PS824 (designed binder) MPTAASATESAFEDTPAPARPEVDGRTKPKRQPRYHVVLWDDDDHTYQYVVVMLRSLFGHPPERGYRLAKEMDTQGRVIVLTTTREHAELKRDQIHAFGYDRLLARSKGSMKASIEAEE

# Reference: patent publication US20240272170A1
